Experimental data published in PubChem BioAssay AID1794845 (National Center for Advancing Translational Sciences (NCATS), 2023).
Screen size: about 6,900 compounds; fewer than 10 were called active. The call rests on the fitted dose curve; in most records, active means well fitted curve in the direction sought with a large enough effect; inconclusive means small, poorly fitted or top-dose-only effect, or another doubt; inactive means no such curve, though single readings can be large or run the other way. The list shows a part of the results.

Chains of the proteins cited; added tags and fusions are not shown. Lines headed by an entry give the natural chain unless they say otherwise; changes in a name come on top.
UniProt C7C422: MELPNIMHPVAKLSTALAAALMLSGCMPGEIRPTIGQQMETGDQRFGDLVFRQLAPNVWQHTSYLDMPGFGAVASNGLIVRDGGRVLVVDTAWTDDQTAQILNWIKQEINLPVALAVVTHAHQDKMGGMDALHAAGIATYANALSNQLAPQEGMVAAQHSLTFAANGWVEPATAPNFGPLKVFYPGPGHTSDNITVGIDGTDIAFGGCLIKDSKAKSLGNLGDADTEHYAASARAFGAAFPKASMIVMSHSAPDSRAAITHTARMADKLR

These compounds were tested against Metallo-beta-lactamase type 2 (Klebsiella pneumoniae) (UniProt C7C422) (assay: qHTS to identify inhibitors of the New Delhi Metallo-beta-lactamase (NDM): primary screen against the NCATS Gemini Collection). Details: NDM-1 enzyme, meropenem hydrolysis, absorbance 300 nm; at 38.4 µM (top of the series) unless noted.
In short: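 Meropenem hydrolysis (50 uM final) by 2 nM NDM-1 read as 300 nm absorbance after 30 min, following >30 min compound–enzyme preincubation in HEPES pH 7.0 with 1 uM ZnSO4 and 0.01% Tween20.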
Further: % of control where 0% means no effect.

Activity % (negative = inhibition), inactive:
CCOCCOC1CCN(S(=O)(=O)c2ccc(OC)cc2)CC1 0.217%
CN1CCCCC1CCNC(=O)c1ccc(N2CCOCC2)nc1 (centres undefined) 5.66%
O=C(O)c1cccc(C2CCCN(C(=O)CCCn3ccnc3)C2)c1 (centres undefined) 23.1%
CC[C@H]1CN(C(=O)NC(C)C)CC[C@H]1CC(=O)N1CCC(C(=O)OC)CC1 10.6% [at 57.5 µM]
Cc1nc2ccccc2n1CCNC(=O)CC[C@H]1NC(=O)c2ccccc2NC1=O 3.17%
CC(=O)Nc1cc(-c2cc(C(=O)NCc3cccnc3)c3c(c2)N(C)CCO3)ccn1 -1.79% [at 57.5 µM]
CCc1ccc(CNc2ncncc2-c2nc(-c3ccccc3)no2)cc1 0.609%
COc1ccc(NC(=O)c2nc3sccn3c2-c2ccncc2)cc1 11.2% [at 57.5 µM]
COc1ccc(Cl)cc1Nc1ncncc1-c1nc(-c2ccccc2)no1 4.11%
O=C(c1ccc(C(F)(F)F)cc1)N1CCCC2(C1)C(=NC1CCCC1)NC(=O)N2c1cccnc1 (centres undefined) 0.178%
CCCS(=O)(=O)N1CC[C@H]2NC(=O)N(c3ccc(F)cc3)C(=O)[C@H]21 5.7% [at 57.5 µM]
COc1ccc([C@H]2C[C@@H](O)[C@@H](O)[C@@H]2N2CCCCC2)cc1 10.9% [at 77.1 µM]
O=c1c2cc(-c3cccs3)nn2ccn1CC(O)c1cccc(Cl)c1 (centres undefined) 9.7%
CN(CCc1noc(C2CN(C(=O)CN3CCCCCC3)C2)n1)S(C)(=O)=O -4.44%
Cc1cccc(-n2ncc3c2CCCC3NC(=O)CN2CCNC(=O)C2)c1C (centres undefined) 5.9%
Cc1nc(C2(C)CCN(C(=O)c3ccc(Cc4c(C)noc4C)o3)CC2)no1 92.1%
Cc1nc(C2CC(O)C2)cc(N2CCN(C(=O)c3cccs3)CC2)n1 (centres undefined) 58.6%
COC[C@@]12CC[C@@H](N3CCOCC3)C[C@H]1CCN(c1nccc(N)n1)C2 0.0248%
COCC1CN(C(=O)Cn2c(=O)oc3ccccc32)CC12CCNCC2 (centres undefined) 11.8%
CCCc1cc(C(=O)N2CCc3c(nc(-c4cccnc4)[nH]c3=O)C2)n[nH]1 -0.0049%
O=C1NC2(CCN(C(=O)Cc3ccccc3)C2)OCc2ccccc21 (centres undefined) 10.4% [at 57.5 µM]
CC[C@H]1CN(C(C)=O)CC[C@H]1CC(=O)NCCOC -0.183% [at 77.1 µM]
O=C(CN1C(=O)C2(CCCCC2)C1c1ccccc1)NCCc1c[nH]c2ccccc12 (centres undefined) 0.185%
Cc1cccc(N2CCN(C(=O)C3c4ccccc4CC(=O)N3C)CC2)c1C (centres undefined) 9.72%
Cc1cc(C)c2[nH]c(C(=O)N(C)Cc3ccccc3-n3cccn3)c(C)c2c1 5.75%
c1ccc(CN(Cc2ccoc2)[C@@H]2C[C@@H]3CO[C@H](c4ccccc4)C[C@@H]3C2)cc1 22.2%
O=S(=O)(c1cc(F)ccc1F)N1CCCC1c1nncn1Cc1ccncc1 (centres undefined) -3.23%
CC(=O)N1CCc2nn(CC(=O)N3CCN(c4ccccc4)CC3)c(=O)cc2C1 5.94%
Cc1occc1-c1nc2ncccc2[nH]1 47.1% [at 77.1 µM]
O=C(CCCc1ccc(F)cc1)N[C@@H]1CCOC[C@H]1Oc1ccccn1 -0.127%
Cn1nc(NC(=O)C2CCS(=O)(=O)C2)c2c(Oc3cccnc3)cccc21 (centres undefined) 3.9%
CCSCCNC(=O)c1c(C)noc1-c1ccc(C(C)(C)C)cc1 -0.26%
Cc1cn(CC(=O)N2CC[C@@](C)(O)[C@@H](Cc3ccccc3)C2)c(=O)[nH]c1=O -2.65%
Cc1nnnn1CCC(=O)Nc1nn(C)c2cccc(N3CCOCC3)c12 4.87%
NC(=O)NCc1cn(C2CCN(C(=O)C3CCCCCC3)CC2)nn1 6.42%
c1ccc2cc(-c3nc(C4CCOC4)no3)ncc2c1 (centres undefined) 6.36%
Fc1ccccc1Nc1ccnc(N2CC3CCC(C2)N3CC(F)(F)F)n1 4%
O=C(Nc1ccc([C@@H](O)[C@H]2COCC(=O)N2Cc2ccccc2F)cc1)c1ccc2c(c1)OCO2 9.42%
CCN(Cc1cccc2nonc12)CC1CCCN(CCc2cccc(OC)c2)C1 (centres undefined) 6.85%
COC(=O)C1=CN(CC(=O)NC(C)c2ccccc2)S(=O)(=O)N=C1C (centres undefined) 6.76%
CC(C)COc1cc(=O)n2c(c1C(=O)NCCCN1CCOCC1)CCCCC2 -0.783%
CCCNC(=O)N[C@@H]1C=C(C(=O)N[C@H](CC(C)C)C(N)=O)C[C@@H](O)[C@@H]1O 21.5% [at 57.5 µM]
O=C(O)c1cnc(N2CCCCC2)nc1-c1ccncc1 12.3%
Cc1nnc([C@@H]2CC(F)(F)CN2C(=O)c2ccoc2)o1 5.76%
COCC1CN(C(=O)c2sccc2C)CC12CCOCC2 (centres undefined) 4.56%
COc1cccc(N2C(=O)NC(=NC3CCCC3)C23CCCN(C(=O)c2ccc(C)cc2)C3)c1 (centres undefined) 6.59%
COc1ccc(-c2nn(-c3ccccc3C)cc2CN2C[C@@H](C)O[C@@H](C)C2)cc1F 1.11%
Cc1nc(C2CCCN(C(=O)C(C)(C)N)C2)cc(N2CCOCC2)n1 (centres undefined) 3.69%
Cc1ccc(C(=O)N2C[C@@H](Oc3cccnc3)C[C@H]2C(N)=O)s1 2.46%
COc1ccc(C(=O)N2CC[C@H]3NC(=O)N(c4ccc(Oc5ccccc5)cc4)C(=O)[C@H]32)cc1 -1.79%
COc1ccc(-c2cc(C(=O)N3CCOC(c4ccc(F)cc4)C3)[nH]n2)cc1 (centres undefined) 10.3%
COc1ccc(CCC(=O)N2CCCCCC2CN2CCC(OC)CC2)cc1 (centres undefined) 32.7%
CC(=O)NCCc1ncc(C)n1C1CCC1 29.8%
Cc1ccccc1CN1CCC(CN(Cc2cccnc2)C(=O)Cc2ccccc2)CC1 2.67%
C#Cc1cccc(C(=O)N2CCC(Cc3ccc(Cl)cc3)(C(=O)OCC)CC2)c1 2.54%
CCCN(C)C(=O)Cn1c(C)ccc(NS(=O)(=O)c2ccc(C)cc2)c1=O 27.1%
O=C(c1cccs1)C1CCCN(Cc2nc(CCc3ccccc3)no2)C1 (centres undefined) 0.209%
Cn1ccc2c(C(=O)NCCc3cnc[nH]3)nc(-c3ccc(N4CCOCC4)cc3)cc21 17.5% [at 57.5 µM]
CC(C)(C)CC(=O)N1C[C@@H](CO)[C@@H]2Oc3ccc(Cl)cc3[C@@H]21 2.46%
O=C(c1ccc(CCC2COc3ccccc3O2)cc1)N1CCCCC1 (centres undefined) 2.29%
O=C(NC1CC1)c1ccc2nnc(C3CCCC3)n2c1 -2.62% [at 57.5 µM]
CCc1nc(-c2c3n(c(=O)n(CCOc4ccc(F)cc4)c2=O)CCCC3)no1 4.9%
CN(C)CC1(O)CCC2(CCN(C(=O)CCC3CCCC3)CC2)CC1 -1.31%
COCCN1CC(CO)C2(CCN(Cc3ccc(C#N)cc3)CC2)C1 (centres undefined) -4.56%
COC(=O)[C@H](NC(=O)[C@@H]1C[C@@H](NC(=O)CSC)CCN1S(=O)(=O)c1ccc(OC)cc1)C(C)C 48.3%
COC(=O)c1nc(NC(=O)CC[C@H]2NC(=O)c3ccccc3NC2=O)sc1C 16.6%
CCn1c2c(c(=O)n1Cc1ccccc1)CCN(C(=O)c1ccc(Oc3ccccc3)cc1)C2 -13.9%
CCNC(=O)c1coc(COc2ccc3c(c2)C(c2cccc(C)c2)N(C(=O)C2CC2)CC3)n1 (centres undefined) -0.726%
O=C(Nc1cccc(C(F)(F)F)c1)[C@@H]1CCCN1c1ccnc2ccnn12 9.09%
CCC(=O)N1CCCC(c2nc(-c3cccnn3)no2)C1 (centres undefined) 14.4%
O=C(Cc1cccc(Cl)c1)N1CC(c2nc(Cc3ccccc3)no2)C1 -1.12%
Cc1ccc(CN2CC(Oc3ccccc3C(=O)NCc3ccccc3)C2)o1 -1.97%
Clc1ccccc1C1(c2ccnc(NCCc3ccncc3)n2)CCNCC1 23.3%
Cc1cc(CN(C)c2ccc(-c3nc(-c4ccccc4F)no3)cn2)on1 25.4%
COc1ccc(CN2C(=O)COC[C@H]2C(=O)Nc2cc(F)cc(F)c2)cc1OC -11.3%
COc1ccc(OC2CCN(C(C)=O)CC2)c(C(=O)N2C[C@@H]3CCC[C@H]2C3)c1 16.9%
C=CCSC(C)C(=O)N1CCCn2nc(C(=O)OC)cc2C1 (centres undefined) 8.03%
O=C(Cn1cccn1)N1C[C@@H](COCC2CC2)[C@H](c2ccccn2)C1 27.3%
C[C@@H](NS(C)(=O)=O)c1onc(-c2cccnc2)c1C(=O)O 3.38% [at 57.5 µM]
CCNC(=O)N[C@H]1[C@H](O)[C@@H](N2CCN(c3ccccc3OC)CC2)[C@@H]2OC[C@H]1O2 0.219% [at 57.5 µM]
O=C(c1ccncc1)N1CCCC(CN2CCCC2)CC1 (centres undefined) -0.451%
CC1CCN(Cc2nnnn2CCCC(=O)N2CCN(CCO)CC2)CC1 -2%
CN(Cc1ccccc1)C(=O)[C@H]1C[C@@H](O)[C@H](O)[C@@H]2N=C(Nc3ccc(-n4cccn4)cc3)S[C@@H]21 132%
CN1CCC2(C1)CN(Cc1ccccc1)c1ccc(C(=O)N3CCOCC3)cc12 (centres undefined) 15.9% [at 57.5 µM]

In the list so far, these contain a tert-butyl group.
Activity % (negative = inhibition), inactive:
CCSCCNC(=O)c1c(C)noc1-c1ccc(C(C)(C)C)cc1 -0.26%
CC(C)(C)CC(=O)N1C[C@@H](CO)[C@@H]2Oc3ccc(Cl)cc3[C@@H]21 2.46%

Quoted at random: 2 entries already listed, in no set order.
Activity % (negative = inhibition), inactive:
CCCN(C)C(=O)Cn1c(C)ccc(NS(=O)(=O)c2ccc(C)cc2)c1=O 27.1%
CC[C@H]1CN(C(=O)NC(C)C)CC[C@H]1CC(=O)N1CCC(C(=O)OC)CC1 10.6% [at 57.5 µM]
